Laboratory results reported in PMC8357812.
These are yes or no findings as the source states them, for the method shown. In cells and extracts the contact can be indirect.

Chains of the proteins cited; added tags and fusions are not shown.
UniProt Q07812: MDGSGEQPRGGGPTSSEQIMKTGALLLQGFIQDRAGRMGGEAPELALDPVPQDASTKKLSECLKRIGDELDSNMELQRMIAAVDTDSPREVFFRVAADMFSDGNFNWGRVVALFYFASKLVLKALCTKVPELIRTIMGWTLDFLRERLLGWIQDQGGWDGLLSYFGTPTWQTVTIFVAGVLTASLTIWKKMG

Biological target: Bax (human (endogenous in A549 and H1299)) (UniProt Q07812)
Test: co-IP; endogenous Bax immunoprecipitated with anti-Bax antibody coupled to Dynabeads M-270 Epoxy from A549 or H1299 cell lysates, rotated at 4 °C for 2 h; western blotting; also from USP30 knock-down H1299 cells (binding decreased)

B1: USP15 (enzyme, UniProt Q9Y4E8 1-981)
chain: MAEGGAADLDTQRSDIATLLKTSLRKGDTWYLVDSRWFKQWKKYVGFDSWDKYQMGDQNVYPGPIDNSGLLKDGDAQSLKEHLIDELDYILLPTEGWNKLVSWYTLMEGQEPIARKVVEQGMFVKHCKVEVYLTELKLCENGNMNNVVTRRFSKADTIDTIEKEIRKIFSIPDEKETRLWNKYMSNTFEPLNKPDSTIQDAGLYQGQVLVIEQKNEDGTWPRGPSTPKSPGASNFSTLPKISPSSLSNNYNNMNNRNVKNSNYCLPSYTAYKNYDYSEPGRNNEQPGLCGLSNLGNTCFMNSAIQCLSNTPPLTEYFLNDKYQEELNFDNPLGMRGEIAKSYAELIKQMWSGKFSYVTPRAFKTQVGRFAPQFSGYQQQDCQELLAFLLDGLHEDLNRIRKKPYIQLKDADGRPDKVVAEEAWENHLKRNDSIIVDIFHGLFKSTLVCPECAKISVTFDPFCYLTLPLPMKKERTLEVYLVRMDPLTKPMQYKVVVPKIGNILDLCTALSALSGIPADKMIVTDIYNHRFHRIFAMDENLSSIMERDDIYVFEININRTEDTEHVIIPVCLREKFRHSSYTHHTGSSLFGQPFLMAVPRNNTEDKLYNLLLLRMCRYVKISTETEETEGSLHCCKDQNINGNGPNGIHEEGSPSEMETDEPDDESSQDQELPSENENSQSEDSVGGDNDSENGLCTEDTCKGQLTGHKKRLFTFQFNNLGNTDINYIKDDTRHIRFDDRQLRLDERSFLALDWDPDLKKRYFDENAAEDFEKHESVEYKPPKKPFVKLKDCIELFTTKEKLGAEDPWYCPNCKEHQQATKKLDLWSLPPVLVVHLKRFSYSRYMRDKLDTLVDFPINDLDMSEFLINPNAGPCRYNLIAVSNHYGGMGGGHYTAFAKNKDDGKWYYFDDSSVSTASEDQIVSKAAYVLFYQRQDTFSGTGFFPLDRETKGASAATGIPLESDEDSNDNDNDIENENCMHTN
- binding: no binding
